Experimental data taken from PubChem BioAssay AID2685 (National Center for Advancing Translational Sciences (NCATS), 2010).
Among all 320,000 compounds or so, about 2,100 (0.66%) were called active. Inconclusive results, whose numbers are uncertain, are shown with a selection of clear calls. Calls come from the whole dose curve; as a rule, active = well fitted inhibition curve with a large enough effect in the signal ratio, with a control signal flat (not every such curve was filed as active); inconclusive = small, poorly fitted or top-dose-only effect, or effect the other way, or a change in a side signal; inactive = flat fitted curve, though single readings scatter; the % refers to the signal ratio. Where the call is inconclusive, the potency comes from a doubtful curve fit.

Assay: qHTS Assay for Lipid Storage Modulators in Drosophila S3 Cells
Settings: BODIPY lipid droplet fluorescence, 18-24 h, cells fed with added oleic acid; lipid storage change, negative = inhibition: at 46.1 µM (top of the series) unless noted
Procedure, shortened: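 Drosophila S3 cells loaded with oleic acid (400 uM, as added) and compounds at several concentrations; lipid droplets imaged by 488-nm laser-scanning cytometry, 500–530 nm intensity and object ratio to cell channel. Percent activity normalized to 20 uM Triacsin C.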
% is set by controls: 0 for no effect and ±100 for the full control effect; potency is the fitted concentration of half-maximal effect.

SMILES | lipid storage change, negative = inhibition | Potency
O=C(NCc1ccc2c(c1)OCO2)c1ccc(Br)s1 | inactive: 18.6% | 
OCCNCc1cccc2ccccc12 | inconclusive: 169% | 
CC(C)c1ccccc1NC(=O)c1ccco1 | inconclusive: -35.4% | 
COc1ccc(C(=O)OCC(=O)NC(=O)NCc2ccccc2)cc1[N+](=O)[O-] |  | inconclusive: 0.206 µM [falling, full curve, poor fit]
COc1ccc2nc(SC)c(C#N)cc2c1 |  | inconclusive: 29.1 µM [falling, single point]
COCCn1c(SCC(=O)NCCc2ccccc2)nnc1-c1ccco1 | inconclusive: 10.4% | 
Nc1c(C(=O)O)cnn1-c1ccccc1 | inconclusive: 12.7% | 
COc1ccc(-c2nnc(SCC(=O)NCc3ccco3)o2)cc1 |  | inconclusive: 23.1 µM [activator, partial curve]
CCN1C(=O)C(CC(=O)NC2CCCCC2)N(CC)C1=O (configuration not stated) |  | inconclusive: 25.9 µM [falling, single point]
Cc1nc(/N=C(\N)Nc2ccccc2)nc2ccccc12 | inconclusive: 55.1% | 
Cc1cccc(NC(=O)COC(=O)c2ccccc2-c2nc3ccccc3s2)c1C |  | inconclusive: 20.6 µM [falling, partial curve, poor fit]
CC/C(=N/Nc1ccccc1)c1cnnc(SC)n1 | inconclusive: 19.3% | 
CN1CCC(N(C)C(=O)c2sc3cc(F)ccc3c2Cl)CC1 | inconclusive: -130% | 
Cn1nnnc1SCC(=O)c1ccco1 | inconclusive: 1.01% | 
COc1ccc(/C=C/C(=O)c2ccccc2O)cc1 | inconclusive: 17% | 
CC(C)(C)c1nnc(NC(=O)Cc2ccc(Br)cc2)s1 | inconclusive: 17% | 
CN1CCN(S(=O)(=O)c2cccc(C(=O)Oc3ccc(C(C)(C)C)cc3)c2)CC1 | inconclusive | 
Cc1cccc(OCCn2c(NC(=O)c3ccco3)nc3ccccc32)c1 | inconclusive: -2.38% | 
CCOCCCNC(=O)C(NC(=O)c1ccc(NC(C)=O)cc1)c1ccc(C)cc1 (configuration not stated) | inconclusive: 3.31% | 
CC(=O)Nc1cccc(/C(C)=N\NC(=O)c2ccc(Cn3nc([N+](=O)[O-])c(Cl)c3C)o2)c1 | inconclusive: 18.2% | 
COc1ccc(CCNC(=O)C(C)Sc2ccc(C)cc2)cc1OC (configuration not stated) |  | inconclusive: 29.1 µM [falling, single point]
COc1ccccc1C(CNC(=O)c1cccc(NS(=O)(=O)c2ccc(Br)cc2)c1)N(C)C (configuration not stated) |  | inconclusive: 6.51 µM [falling, single point]
CSc1[nH]c(=O)c(C(=O)O)cc1C#N |  | inconclusive: 0.731 µM [falling, full curve, poor fit]
COc1ccccc1-n1c(SCC(=O)N(C)C2CCS(=O)(=O)C2)nc2ccccc2c1=O (configuration not stated) | inconclusive: 86.4% | 
CC1CCCC(C)N1C(=O)c1ccc(CS(=O)(=O)c2ccccc2)cc1 (configuration not stated) | inconclusive: -22.9% | 
CN(CCc1cnn(C)c1)Cc1nc(CC2CC2)no1 | inconclusive: -4.86% | 

SMILES | lipid storage change, negative = inhibition | Potency
COc1ccc(N2CCN(C(=O)c3cc(C)oc3C)CC2)cc1 |  | inconclusive: 0.731 µM [activator, full curve, poor fit]
N#Cc1cccc(CN2CCC(=O)N([C@H](CO)c3ccccc3)CC2)c1 | inconclusive: 72.4% | 
O=C1c2ccccc2NC(c2ccc(-c3cccc([N+](=O)[O-])c3)o2)N1O (configuration not stated) | inconclusive: 0.596% | 
CCOC(=O)c1cnn(-c2ccccc2)c1-c1ccccc1 | inconclusive: 196% | 
Cc1cc(NC(=O)CSc2ccc3nnc(-c4ccc(Cl)cc4)n3n2)no1 | inconclusive: -5.73% | 
Cc1nc(SCc2ccccc2F)c2oc3ccccc3c2n1 | inconclusive: 16.6% | 
COc1ccc(CNS(=O)(=O)c2ccc(-n3cnnn3)c(OC)c2)cc1 | inconclusive: -4.51% | 
COc1ccc(CCNC(=O)C(NC(=O)OCc2ccccc2)C(C)C)cc1OC (configuration not stated) | inactive: 3.69% | 
CSc1nc2ccsc2c(=O)n1-c1ccccn1 | inconclusive: 1.76% | 
CC(NC(=O)c1ccccc1)C(=O)OCC(=O)c1ccc(Br)cc1 (configuration not stated) |  | inconclusive: 0.231 µM [activator, full curve, poor fit]
O=C(Nc1ccccn1)c1ccc(C(=O)Nc2ccccn2)cc1 | inconclusive: 27.3% | 
COc1ccc(CCn2nnnc2C(C(C)C)N2CCC(C(N)=O)CC2)cc1OC (configuration not stated) | inconclusive: -31.2% | 
COc1cccc(CN2CCN(Cc3cc4ccccc4o3)CC2CCO)c1 (configuration not stated) | inconclusive: 17.9% | 
CCOC(=O)c1c(NC(=O)Cn2nnc(-c3ccccc3Cl)n2)sc(C)c1C |  | inconclusive: 20.6 µM [activator, single point]
O=C(O)CNC(=O)c1ccc(NC(=O)/C(=C/c2ccccc2)NC(=O)c2ccco2)cc1 |  | inconclusive: 29.1 µM [activator, single point]
CC(=O)N1CCc2cc(C(=O)CN3CCN(c4ccccc4F)CC3)ccc21 | inconclusive: -36.2% | 
CCOC(=O)C1=C(COC(=O)CCc2ccc(F)cc2)NC(=O)NC1C (configuration not stated) |  | inconclusive: 2.31 µM [activator, full curve, poor fit]
Cn1c(SCc2nc3ccccc3s2)nnc1-c1ccc2c(c1)OCO2 | inconclusive: -21.2% | 
Fc1ccc(/C=N/Nc2nc3ccccc3[nH]2)cc1F | inconclusive: -20.7% | 
CCC1(c2ccc(Cl)cc2)NC(=O)N(CC(=O)NC2CCCC(C)C2C)C1=O (configuration not stated) | inconclusive | 
Fc1ccc(F)c(CNc2ncnc3cc(Cl)ccc23)c1 |  | inconclusive: 29.1 µM [cytotoxic, single point]
CC1CC(C)CN(C(=O)COC(=O)CNC(=O)C23CC4CC(CC(C4)C2)C3)C1 (configuration not stated) | inconclusive | 
Cc1nnc(SCC(=O)NC(=O)NCc2ccco2)s1 | inconclusive: 1.25% | 
O=C(CCc1nc2ccccc2c(=O)[nH]1)Nc1cc(Cl)ccc1N1CCCC1 | inconclusive: 115% | 
Cc1ccc(O)c(C(=O)CC(=O)c2ccc(Cl)cc2)c1 |  | inconclusive: 29.1 µM [cytotoxic, single point]
COc1ccc(CCNC(=O)c2cccnc2SC)cc1 | inconclusive: 9.1% | 

Reformatted: 3 of the compounds above.
SMILES	lipid storage change, negative = inhibition	Potency
CCC1(c2ccc(Cl)cc2)NC(=O)N(CC(=O)NC2CCCC(C)C2C)C1=O (configuration not stated)	inconclusive	
Fc1ccc(F)c(CNc2ncnc3cc(Cl)ccc23)c1		inconclusive: 29.1 µM [cytotoxic, single point]
CC1CC(C)CN(C(=O)COC(=O)CNC(=O)C23CC4CC(CC(C4)C2)C3)C1 (configuration not stated)	inconclusive	
